Results published in patent publication US20220204643A1.
Read-outs that look alike come from different tables or passages of the source. Results are given in words; binding and its absence hold for the method and conditions named. Some results given as binding are weak or reduced against the parent protein; the word gives no strength.

Chains of the proteins cited; added tags and fusions are not shown. Lines headed by an entry give the natural chain unless they say otherwise; changes in a name come on top.
UniProt P42229: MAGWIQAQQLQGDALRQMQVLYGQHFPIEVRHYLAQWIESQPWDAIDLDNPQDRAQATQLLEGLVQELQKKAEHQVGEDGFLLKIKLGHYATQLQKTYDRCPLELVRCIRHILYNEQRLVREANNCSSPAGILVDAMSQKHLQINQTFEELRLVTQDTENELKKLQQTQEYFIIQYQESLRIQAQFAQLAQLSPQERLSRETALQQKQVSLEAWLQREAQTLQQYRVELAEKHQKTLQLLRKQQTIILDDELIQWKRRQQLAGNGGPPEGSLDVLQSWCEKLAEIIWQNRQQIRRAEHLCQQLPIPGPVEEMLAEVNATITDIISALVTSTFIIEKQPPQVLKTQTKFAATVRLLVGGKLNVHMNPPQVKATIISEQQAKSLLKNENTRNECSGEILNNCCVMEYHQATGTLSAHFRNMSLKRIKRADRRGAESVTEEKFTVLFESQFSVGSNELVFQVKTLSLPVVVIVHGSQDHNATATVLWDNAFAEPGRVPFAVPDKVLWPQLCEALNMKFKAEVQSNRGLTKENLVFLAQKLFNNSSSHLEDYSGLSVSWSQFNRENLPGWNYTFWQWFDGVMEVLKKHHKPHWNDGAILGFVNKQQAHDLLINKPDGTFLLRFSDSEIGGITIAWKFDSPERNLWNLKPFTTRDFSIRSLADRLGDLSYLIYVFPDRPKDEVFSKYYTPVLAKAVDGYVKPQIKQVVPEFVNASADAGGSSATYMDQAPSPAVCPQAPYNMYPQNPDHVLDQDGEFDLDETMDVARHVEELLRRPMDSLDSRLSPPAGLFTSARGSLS
UniProt P09417: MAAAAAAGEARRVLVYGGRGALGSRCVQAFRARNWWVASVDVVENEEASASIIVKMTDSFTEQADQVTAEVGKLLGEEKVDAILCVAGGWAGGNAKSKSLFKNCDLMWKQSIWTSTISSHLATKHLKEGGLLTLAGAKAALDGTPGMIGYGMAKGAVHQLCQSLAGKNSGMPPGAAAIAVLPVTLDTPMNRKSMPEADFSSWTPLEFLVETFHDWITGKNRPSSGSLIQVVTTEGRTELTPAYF
UniProt P13500: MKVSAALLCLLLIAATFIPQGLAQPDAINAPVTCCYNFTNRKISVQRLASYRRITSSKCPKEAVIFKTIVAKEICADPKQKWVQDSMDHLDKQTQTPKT
UniProt Q00722: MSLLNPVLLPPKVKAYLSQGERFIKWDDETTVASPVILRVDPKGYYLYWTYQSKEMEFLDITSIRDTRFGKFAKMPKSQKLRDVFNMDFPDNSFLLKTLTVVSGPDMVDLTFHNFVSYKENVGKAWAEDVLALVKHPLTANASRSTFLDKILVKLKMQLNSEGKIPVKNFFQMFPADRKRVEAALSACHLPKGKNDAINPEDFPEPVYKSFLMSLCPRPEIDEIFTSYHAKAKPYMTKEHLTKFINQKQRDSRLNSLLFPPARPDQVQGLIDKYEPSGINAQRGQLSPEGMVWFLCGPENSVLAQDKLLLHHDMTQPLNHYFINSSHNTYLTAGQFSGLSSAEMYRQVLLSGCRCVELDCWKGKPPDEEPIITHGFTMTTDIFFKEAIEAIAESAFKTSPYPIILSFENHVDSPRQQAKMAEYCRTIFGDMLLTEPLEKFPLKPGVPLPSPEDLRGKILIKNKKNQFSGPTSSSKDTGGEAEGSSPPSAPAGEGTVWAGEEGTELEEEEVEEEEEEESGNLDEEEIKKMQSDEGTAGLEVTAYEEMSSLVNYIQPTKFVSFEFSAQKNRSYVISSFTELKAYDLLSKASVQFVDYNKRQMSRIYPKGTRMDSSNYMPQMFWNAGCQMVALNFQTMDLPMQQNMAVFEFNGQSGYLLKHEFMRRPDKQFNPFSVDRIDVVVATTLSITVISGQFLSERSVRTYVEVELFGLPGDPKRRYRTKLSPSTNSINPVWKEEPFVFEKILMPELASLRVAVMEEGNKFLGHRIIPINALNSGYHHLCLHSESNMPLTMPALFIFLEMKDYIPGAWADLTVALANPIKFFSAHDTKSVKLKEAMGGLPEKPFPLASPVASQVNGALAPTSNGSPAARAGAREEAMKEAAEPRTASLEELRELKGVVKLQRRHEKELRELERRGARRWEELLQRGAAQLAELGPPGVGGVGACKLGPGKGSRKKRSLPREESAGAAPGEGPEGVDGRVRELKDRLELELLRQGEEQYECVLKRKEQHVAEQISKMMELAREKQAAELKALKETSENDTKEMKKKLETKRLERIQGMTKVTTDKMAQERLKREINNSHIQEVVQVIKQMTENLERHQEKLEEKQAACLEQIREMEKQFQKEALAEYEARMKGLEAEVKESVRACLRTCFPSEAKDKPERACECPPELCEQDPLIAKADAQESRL

Experiments:
[1] = molecular target: T1, phospholipase C delta 4 (human) (UniProt Q9BRC7); test: protein array
T1 sequence: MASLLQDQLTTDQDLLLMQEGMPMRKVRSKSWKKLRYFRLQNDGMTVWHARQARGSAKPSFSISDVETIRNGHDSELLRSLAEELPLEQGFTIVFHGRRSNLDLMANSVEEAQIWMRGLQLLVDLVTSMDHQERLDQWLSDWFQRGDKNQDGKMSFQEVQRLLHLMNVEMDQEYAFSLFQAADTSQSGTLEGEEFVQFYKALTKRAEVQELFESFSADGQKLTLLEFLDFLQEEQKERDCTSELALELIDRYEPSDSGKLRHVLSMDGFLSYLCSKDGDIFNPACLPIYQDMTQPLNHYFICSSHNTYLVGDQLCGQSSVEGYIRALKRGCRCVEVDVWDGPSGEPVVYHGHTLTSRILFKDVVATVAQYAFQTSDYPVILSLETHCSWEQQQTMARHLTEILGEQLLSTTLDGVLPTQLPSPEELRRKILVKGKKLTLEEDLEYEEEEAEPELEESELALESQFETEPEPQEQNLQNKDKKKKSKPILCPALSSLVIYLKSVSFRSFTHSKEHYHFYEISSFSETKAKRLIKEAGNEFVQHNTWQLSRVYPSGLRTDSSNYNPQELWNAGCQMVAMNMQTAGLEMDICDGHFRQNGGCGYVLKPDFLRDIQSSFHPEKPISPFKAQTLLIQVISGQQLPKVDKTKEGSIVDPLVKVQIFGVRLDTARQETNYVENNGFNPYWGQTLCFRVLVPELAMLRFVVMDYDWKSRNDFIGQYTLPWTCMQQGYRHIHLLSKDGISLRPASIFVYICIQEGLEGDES

[2] = molecular target: T1, phospholipase C delta 4 (human)
[3] = molecular target: signal transducer and activator of transcription 5A, transcript variant 2 (human) (UniProt P42229); test: protein array
[4] = molecular target: quinoid dihydropteridine reductase, transcript variant 1 (human) (UniProt P09417); test: protein array
[5] = molecular target: signal transducer and activator of transcription 5A, transcript variant 2 (human) (UniProt P42229)
[6] = molecular target: quinoid dihydropteridine reductase, transcript variant 1 (human) (UniProt P09417)
protein array = substrate: C-C motif chemokine ligand 2 (human) (UniProt P13500); test: protein array
[7] = substrate: C-C motif chemokine ligand 2 (human) (UniProt P13500)
[8] = molecular target: T2, neutrophil cytosolic factor 4, transcript variant 2 (human); test: protein array
T2 sequence: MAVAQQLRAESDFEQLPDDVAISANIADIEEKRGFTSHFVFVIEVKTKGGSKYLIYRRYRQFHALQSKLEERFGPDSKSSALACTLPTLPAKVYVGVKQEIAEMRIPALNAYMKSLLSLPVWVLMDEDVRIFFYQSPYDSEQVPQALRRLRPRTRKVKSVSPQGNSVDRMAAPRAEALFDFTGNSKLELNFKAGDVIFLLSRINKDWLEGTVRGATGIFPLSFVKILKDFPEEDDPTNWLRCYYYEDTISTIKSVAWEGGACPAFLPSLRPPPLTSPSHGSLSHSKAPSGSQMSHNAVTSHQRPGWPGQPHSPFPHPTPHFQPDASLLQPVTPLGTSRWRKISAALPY

[9] = molecular target: T3, t-complex 11 like 2, transcript variant X2 (human) (UniProt Q8N4U5); test: protein array
T3 sequence: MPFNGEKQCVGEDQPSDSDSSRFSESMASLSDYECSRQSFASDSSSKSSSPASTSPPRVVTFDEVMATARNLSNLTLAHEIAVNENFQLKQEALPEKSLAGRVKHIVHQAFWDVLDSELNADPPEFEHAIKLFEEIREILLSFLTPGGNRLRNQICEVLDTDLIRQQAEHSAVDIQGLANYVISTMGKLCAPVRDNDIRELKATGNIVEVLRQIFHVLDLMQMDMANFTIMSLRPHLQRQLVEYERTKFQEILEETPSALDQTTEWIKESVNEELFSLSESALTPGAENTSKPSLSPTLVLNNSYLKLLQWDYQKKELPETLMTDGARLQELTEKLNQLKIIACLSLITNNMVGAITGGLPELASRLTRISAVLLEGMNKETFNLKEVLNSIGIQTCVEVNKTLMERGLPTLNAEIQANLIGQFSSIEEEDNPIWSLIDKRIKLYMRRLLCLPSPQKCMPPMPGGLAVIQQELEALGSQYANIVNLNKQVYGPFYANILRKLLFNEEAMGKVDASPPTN

[10] = molecular target: phospholipase C beta 2, transcript variant 4 (human) (UniProt Q00722); test: protein array
[11] = molecular target: T2, neutrophil cytosolic factor 4, transcript variant 2 (human)
[12] = molecular target: T3, t-complex 11 like 2, transcript variant X2 (human)
[13] = molecular target: phospholipase C beta 2, transcript variant 4 (human) (UniProt Q00722)
[14] = molecular target: T4, endoplasmic reticulum protein 27, transcript variant 1 (human) (UniProt Q96DN0); test: protein array
T4 sequence: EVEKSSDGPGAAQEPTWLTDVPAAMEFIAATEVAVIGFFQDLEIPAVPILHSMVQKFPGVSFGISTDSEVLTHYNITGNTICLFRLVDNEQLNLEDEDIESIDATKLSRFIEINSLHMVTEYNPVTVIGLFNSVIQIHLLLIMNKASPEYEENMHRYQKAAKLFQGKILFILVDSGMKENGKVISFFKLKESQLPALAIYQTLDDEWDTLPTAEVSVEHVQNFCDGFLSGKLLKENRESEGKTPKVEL

[15] = molecular target: T4, endoplasmic reticulum protein 27, transcript variant 1 (human)
[16] = molecular target: T5, radial spoke head 14 homolog (human) (UniProt Q9UHP6); test: protein array
T5 sequence: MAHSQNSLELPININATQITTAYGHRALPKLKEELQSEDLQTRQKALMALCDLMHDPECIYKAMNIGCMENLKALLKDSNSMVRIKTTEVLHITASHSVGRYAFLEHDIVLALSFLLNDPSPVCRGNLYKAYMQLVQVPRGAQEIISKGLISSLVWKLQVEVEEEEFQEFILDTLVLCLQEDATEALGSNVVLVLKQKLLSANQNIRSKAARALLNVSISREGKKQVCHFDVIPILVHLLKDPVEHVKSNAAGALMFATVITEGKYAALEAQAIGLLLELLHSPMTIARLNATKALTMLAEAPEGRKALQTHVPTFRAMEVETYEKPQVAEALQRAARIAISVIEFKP

[17] = molecular target: T5, radial spoke head 14 homolog (human)

Measured: binding

B1: TSAR1002 (antibody, V domains shown)
VH: EVQLVESGGGLVQPGGSLRLSCAASGFTFSSYSMNWVRQAPGKGLEWVSYISSSSSTIYYADSVKGRFTISRDNAKNSLYLQMNSLRAEDTAVYYCARDIALGRGGMDVWGQGTTVTVSS
VL: AIQMTQSPSSLSASVGDRVTITCRASQGIRNDLGWYQQKPGKAPKLLIYAASSLQSGVPSRFSGSGSGTDFTLTISSLQPEDFATYYCLQDYNYPPTFGQGTKVEIKR
binds: [1] | [2]

B2: TSAR1007 (antibody, V domains shown)
VH: EVQLVESGGGVVRPGGSLRLSCAASGFTFDDYGMSWVRQAPGKGLEWVSGIHWNGGSTGYADSVKGRFTISRDNAKNSLYLQMNSLRAEDTALYHCARSTASSGYYDAFDIWGQGTMVTVSS
VL: LYVLTQPPSVSVAPGQTARITCGGNNIGSKSVHWYQQKPGQAPVLVVYDDSDRPSGIPERFSGSNSGNTATLTISRVEAGDEADYYCQVWDSSSDHWIFGGGTKLTVLG
binds: [3] | [4] | [5] | [6]

B3: TREC1002 (antibody, V domains shown)
VH: EVQVVESGGGLVQPGRSLRLSCTPSGFTFGDNAMGWFRQAPGKGLEWVGFIRSKAYGGTRDYAASVKGRFTISRDDSKSIAYLQMNSLKTEDTAVYYCTRERPPNCGSSCPETWGQGTLVTVSS
VL: PAVVTQEPSLTVSPGGTVTLTCGSSTGVVTTGHYPYWFQQKPGQAPTTLIFDTSNKHSWTPARFSGSLLGGKAALTLSAAQPEDEADYYCWLISGGAPVFGGGTKLTVLG
binds: protein array | [7]

B4: TMES1003 (antibody, V domains shown)
VH: VVQLLESGGGLVQPGGSLRLSCAASGFTFISYAMSWVRQAPGKGLEWVSDISGSGGSTYYADSVKGRLTISRDNSNNTLYLQMNSLRAEDTAVYYCAKEDGYTQNFDYWGQGTLVTVSS
VL: SYVLTQPPSVSVAPGKTARITCGGDNIGSRSVHWYQQKPGQAPVLVIYYDSDRPSGIPERFSGSNSGNTATLTISRVEAGDEADYYCQVWDSSSDHPWVFGGGTKLTVLR
binds: [8] | [9] | [10] | [11] | [12] | [13]

B5: TPAN1002 (antibody, V domains shown)
VH: QVQLVQSGTEMKRPGSSVKVSCKASGGTFNFYAINWVRQAPGQGLEWMGGIVPIFDTTTYAQRFQGRVTITADESTTTVHMELSSLRFDDTAVYYCARDQSGADRFDSWGQGTLVTVSS
VL: QSALTQPASVSGSPGQSITISCTGTTSDVGTYNLVSWYQQLPGKAPKLIIYEVTKRPSGVSNRFSASKSGSTASLTISGLQAEDEADYYCCSYAGSSTYVFGSGARVTVLG
binds: [14] | [15]

B6: TREC1001 (antibody, V domains shown)
VH: QEQLVQSGAEVKKPGSSVKVSCKVSGGPFKTYPINWVRQAPGQGLEWMGGITPNSGTPNYAQKFQGRVTITADESTTTVYMQLSSLRSEDTAVYYCARVHNWDFYYGMDVWGLGTTVTVSS
VL: QSVLTQPPSASGTPGQRVTISCSGSSSNIGSNTVNWYQQFPGTAPKLLIYSNNHRPLGVPDRFSGSKSGTSASLAISEVRSEDEADYYCATWDDSLNGGVFGAGTKLTVVG
binds: [16] | [17]
